Values of other authors in patent publication US20050255458A1, “Drug discovery assays based on the biology of chronic disease” (priority 2002, published 2005).
Read-outs that look alike come from different tables or passages of the source.

Experiments:
[1] = test system: β cell; settings: 40 mg/kg per day for five consecutive days; cited from earlier work
[2] = test system: β cell; settings: cited from earlier work

SMILES | day of first peak in β cell apoptosis [1] [days] | day of second peak in β cell apoptosis [1] [days] | shape of curve of the sum of β cell apoptosis ([2]; 3-week old mice) | shape of curve of the sum of β cell apoptosis ([2]; 12-week mice)
CN(N=O)C(=O)N[C@H]1C(O)O[C@H](CO)[C@@H](O)[C@@H]1O (mixture of isomers) [STZ, streptozotocin] | 5 | 11 | – | –
O=P1(N(CCCl)CCCl)NCCCO1 (stereo not shown) [CY, cyclophosphamide] | – | – | single peak | two peak curve
